Measurements reported in PubChem BioAssay AID652272 (Drosophila RNAi Screening Center, 2013)
The screen tested about 21,000 reagents; this is an unselected part of those that have a named target and a result. Over the whole deposit, 503 (2.4%) are marked active. 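Raw plate light values, not normalised; calls rest on replicate z-scores that were not deposited; hits include reporter decreases as well as increases.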 Not stated in the record: the amount of reagent, the time to read-out.

- Screen: 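Genes whose knock-down decreases or increases Hedgehog reporter output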 (primary screen)
- Cells: Drosophila clone 8 (Cl8) cells
- Reagents: long dsRNA against Drosophila genes
- Measured: 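Firefly light from a Hedgehog-responsive ptc promoter reporter and Renilla reference light, both read on a plate reader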
- Reading the numbers: firefly Hh reporter signal: higher = more ptc reporter light; Renilla reference signal: higher = more Renilla control light
- Active means: 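Called a hit if the two-replicate mean z-score lies below -2 or above +3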
- Meaning of the calls: active = hit: reporter lowered or raised; inactive = not a hit

gene | dsRNA | firefly Hh reporter signal, replicate 1 | firefly Hh reporter signal, replicate 2 | firefly Hh reporter signal, replicate 3 | Renilla reference signal, replicate 1 | Renilla reference signal, replicate 2 | activity call
CG8927 | DRSC16458 | 86768 | 88380 | – | 2129 | 2060 | inactive
Iru | DRSC14457 | 1.17e5 | 74105 | – | 4944 | 3480 | inactive
Mtmr6 | DRSC04046 | 81548 | 57063 | – | 2471 | 5030 | inactive
CG12241 | DRSC14481 | 97690 | 53511 | – | 4275 | 2353 | inactive
CG17186 | DRSC15180 | 5.94e5 | 1.17e5 | – | 31145 | 3395 | inactive
CG31008 | DRSC14028 | 4.56e5 | 1.74e5 | – | 21559 | 3581 | inactive
CG31551 | DRSC12159 | 2.13e5 | 8.40e5 | 1.43e5 | 7848 | 48371 | inactive
lncRNA:CR34046 | DRSC14075 | 4.32e5 | 2.17e5 | – | 21969 | 4649 | inactive
CG14969 | DRSC08428 | 1.29e5 | 1.20e5 | – | 4852 | 4488 | inactive
Sobp | DRSC07312 | 50074 | 64704 | – | 2770 | 2941 | inactive
Dh44-R2 | DRSC06141 | 1.10e5 | 59660 | – | 2976 | 4315 | inactive
Dh44-R2 | DRSC06281 | 1.36e5 | 42068 | – | 3472 | 4029 | inactive
CG4686 | DRSC15622 | 7.71e5 | 1.41e5 | – | 37783 | 4611 | inactive
spag4 | DRSC02973 | 79931 | 56547 | – | 2074 | 5233 | inactive
CG31467 | DRSC16048 | 77968 | 89245 | – | 2267 | 2408 | inactive
CG33223 | DRSC17572 | 4.57e5 | 1.57e5 | – | 31867 | 4272 | inactive
Lac | DRSC07452 | 96459 | 43965 | – | 3782 | 1978 | inactive
fat-spondin | DRSC07617 | 1.32e5 | 74496 | – | 5661 | 2806 | inactive
Rad51D | DRSC06840 | 89517 | 52620 | – | 2024 | 4711 | inactive
Desat2 | DRSC15919 | 95805 | 1.39e5 | – | 2226 | 6704 | inactive
udd | DRSC06720 | 78073 | 41339 | – | 1767 | 3280 | inactive
mRNA-cap | DRSC19789 | 56560 | 1.10e5 | – | 2130 | 5370 | inactive
CG33096 | DRSC14440 | 1.06e5 | 69349 | – | 4272 | 2412 | inactive

Reformatted: results already given.
CG12241 [DRSC14481] — firefly Hh reporter signal, replicate 1: 97690; firefly Hh reporter signal, replicate 2: 53511; Renilla reference signal, replicate 1: 4275; Renilla reference signal, replicate 2: 2353; activity call: inactive
CG17186 [DRSC15180] — firefly Hh reporter signal, replicate 1: 5.94e5; firefly Hh reporter signal, replicate 2: 1.17e5; Renilla reference signal, replicate 1: 31145; Renilla reference signal, replicate 2: 3395; activity call: inactive
CG31008 [DRSC14028] — firefly Hh reporter signal, replicate 1: 4.56e5; firefly Hh reporter signal, replicate 2: 1.74e5; Renilla reference signal, replicate 1: 21559; Renilla reference signal, replicate 2: 3581; activity call: inactive
CG31551 [DRSC12159] — firefly Hh reporter signal, replicate 1: 2.13e5; firefly Hh reporter signal, replicate 2: 8.40e5; firefly Hh reporter signal, replicate 3: 1.43e5; Renilla reference signal, replicate 1: 7848; Renilla reference signal, replicate 2: 48371; activity call: inactive
